Source: PubChem BioAssay AID248 (DTP/NCI, 2004)
The list does not hold the whole screen: it is rich in T/C values a quarter to a half above the control, in often repeated tests (any T/C) and in doses without a T/C. Other doses and runs of a compound stand elsewhere. T/C is the treated group as % of the vehicle group. Some doses have a count of surviving animals in place of a T/C: the source holds a T/C of zero for them, seemingly a mark for toxic or unscored doses. Some survivor counts are full or nearly so, which does not show that the dose was tolerated: survival well below the control is almost never listed, so the zero probably covers shortened survival too. Survivors were counted at the toxicity check, usually on the fifth day, unless a day is given; later deaths do not show. Schedule codes are those of the source, read here as Q, the interval in days (D) or hours (H), X, the number of doses. Some schedules carry Z or #; the key to these is not given. Some structures stand for samples that the source files as different forms (salt, stereo form or complex); doses refer to the form tested. Some doses were run more than once; the results are listed from low to high. For survival time, the PubChem record calls one and a half times the control and up active, and a quarter to a half above the control has no call in these data; cut-offs in other NCI protocols can differ.

Test system: L1210 leukemia ip in BDF1 mice, survival T/C
Experiment: NCI In Vivo Anticancer Drug Screen. Data for tumor model L1210 Leukemia (intraperitoneal) in B6D2F1 (BDF1) mice
Conditions: T/C endpoint: mean survival time, higher T/C = longer survival
[1] = dose: 75.0 mg/kg/injection, schedule: Q01DX Z (ip), vehicle: carboxymethylcellulose (CMC)
[2] = dose: 400.0 mg/kg/injection, schedule: Q01DX009 (ip), vehicle: Klucel (hydroxypropylcellulose) (HPC)
[3] = dose: 400.0 mg/kg/injection, schedule: Q04DX002 (ip), vehicle: Klucel (hydroxypropylcellulose) (HPC)
[4] = dose: 200.0 mg/kg/injection, schedule: Q04DX003 (ip), vehicle: saline
[5] = dose: 400.0 mg/kg/injection, schedule: Q04DX003 (ip), vehicle: saline
[6] = dose: 300.0 mg/kg/injection, schedule: Q01DX001 (ip), vehicle: carboxymethylcellulose (CMC)
[7] = dose: 100.0 mg/kg/injection, schedule: Q04DX003 (ip), vehicle: Klucel (hydroxypropylcellulose) (HPC)
[8] = dose: 200.0 mg/kg/injection, schedule: Q01DX001 (ip), vehicle: saline
[9] = dose: 200.0 mg/kg/injection, schedule: Q04DX003 (ip), vehicle: Klucel (hydroxypropylcellulose) (HPC)
[10] = dose: 400.0 mg/kg/injection, schedule: Q01DX001 (ip), vehicle: saline
[11] = dose: 400.0 mg/kg/injection, schedule: Q04DX003 (ip), vehicle: Klucel (hydroxypropylcellulose) (HPC)
[12] = dose: 400.0 mg/kg/injection, schedule: Q04DX003 (ip), vehicle: saline with Tween-80

`O=C(NCCCCCCCCNC(=O)Nc1ccc(C2=NCCN2)cc1)Nc1ccc(C2=NCCN2)cc1` was tested. Which T/C (dose: 50.0 mg/kg/injection, schedule: Q01DX Z (ip), vehicle: carboxymethylcellulose (CMC)) did it give?
Its T/C is 136 % of control.

And the T/C [1]?
The T/C was 132 % of control.

And the T/C (dose: 200.0 mg/kg/injection, schedule: Q01DX Z (ip), vehicle: carboxymethylcellulose (CMC))?
Its T/C is 127 % of control.

What about the survivor count (dose: 500.0 mg/kg/injection, schedule: Q01DX Z (ip), vehicle: carboxymethylcellulose (CMC)) of the same molecule?
The survivor count was 0 of 6.

How did the survivor count (dose: 100.0 mg/kg/injection, schedule: Q01DX009 (ip), vehicle: Klucel (hydroxypropylcellulose) (HPC)) turn out when `CCCCCCCCCOc1ccc(C=Nc2ccc(CC)cc2)cc1` was run?
The survivor count was 6 of 6.

And the survivor count (dose: 200.0 mg/kg/injection, schedule: Q01DX009 (ip), vehicle: Klucel (hydroxypropylcellulose) (HPC))?
Its survivor count is 6 of 6.

What about the survivor count [2] of the same molecule?
Its survivor count is 5 of 6.

Which survivor count [3] does the source give for `CCCN1CCCC(OC(=O)N(C)C)C1` (configuration not stated) here?
The survivor count was 1 of 3.

What does the source list for `[Cl][Co][Cl].[NH-]CCN1CC1`?
survivor count [4]: 0 of 6; survivor count [5]: 0 of 6

Which T/C (dose: 45.0 mg/kg/injection, schedule: Q01DX Z (ip), vehicle: saline) does the source give for `CN(C)N=Nc1ccc(CCC(=O)NN)cc1` here?
Its T/C is 132 % of control.

Which results are given for `CCCOC(=O)NNC(=O)OCCC`?
survivor count (dose: 150.0 mg/kg/injection, schedule: Q01DX009 (ip), vehicle: Klucel (hydroxypropylcellulose) (HPC)): 6 of 6; survivor count (dose: 300.0 mg/kg/injection, schedule: Q01DX009 (ip), vehicle: Klucel (hydroxypropylcellulose) (HPC)): 0 of 6

`CN(N)C(=O)Nc1ccccc1` was tested. Which survivor count [6] did it give?
Its survivor count is 0 of 6.

What does the source list for `CC1(C)N=C(N)N=C(N)N1c1cccc(CCCCc2ccc(Cl)cc2Cl)c1`?
survivor count (dose: 40.0 mg/kg/injection, schedule: Q01DX001 (ip), vehicle: saline): 2 of 4; survivor count (dose: 50.0 mg/kg/injection, schedule: Q01DX001 (ip), vehicle: saline): 2 of 4; survivor count (dose: 50.0 mg/kg/injection, schedule: Q04DX003 (ip), vehicle: saline with Tween-80): 3 of 6; survivor count (dose: 80.0 mg/kg/injection, schedule: Q01DX001 (ip), vehicle: saline): 0 of 4; survivor count (dose: 100.0 mg/kg/injection, schedule: Q01DX001 (ip), vehicle: saline): 0 of 4; survivor count [7]: 0 of 6; survivor count (dose: 100.0 mg/kg/injection, schedule: Q04DX003 (ip), vehicle: saline with Tween-80): 0 of 6 and 1 of 6; survivor count [8]: 0 of 4; survivor count [9]: 1 of 6; survivor count (dose: 200.0 mg/kg/injection, schedule: Q04DX003 (ip), vehicle: saline with Tween-80): 0 of 6; survivor count [10]: 0 of 4; survivor count [11]: 0 of 6; survivor count [12]: 0 of 6

Which results are given for `CCN(c1ccccc1)P(I)(c1ccccc1)(c1ccccc1)c1ccccc1`?
survivor count (dose: 75.0 mg/kg/injection, schedule: Q01DX001 (ip), vehicle: other): 1 of 6; survivor count (dose: 150.0 mg/kg/injection, schedule: Q01DX001 (ip), vehicle: other): 1 of 6; survivor count (dose: 300.0 mg/kg/injection, schedule: Q01DX001 (ip), vehicle: other): 0 of 6

For `NC(CSS(=O)(=O)O)=NCc1ccsc1`, which survivor count (dose: 50.0 mg/kg/injection, schedule: Q04DX002 (ip), vehicle: Klucel (hydroxypropylcellulose) (HPC)) is on record?
The survivor count was 0 of 3.

What about the survivor count (dose: 100.0 mg/kg/injection, schedule: Q04DX002 (ip), vehicle: Klucel (hydroxypropylcellulose) (HPC)) of the same molecule?
The survivor count was 1 of 3.

And the survivor count (dose: 200.0 mg/kg/injection, schedule: Q04DX002 (ip), vehicle: Klucel (hydroxypropylcellulose) (HPC))?
The survivor count was 1 of 3.

What about the survivor count [3] of the same molecule?
The survivor count was 0 of 3.

How did the survivor count (dose: 25.0 mg/kg/injection, schedule: Q04DX003 (ip), vehicle: saline) turn out when `CCOC(=O)/C=C/C(=O)O.[Zn+2]` was run?
Its survivor count is 3 of 3.

What about the survivor count (dose: 50.0 mg/kg/injection, schedule: Q04DX003 (ip), vehicle: saline) of the same molecule?
The survivor count was 3 of 3.

And the survivor count (dose: 100.0 mg/kg/injection, schedule: Q04DX003 (ip), vehicle: saline)?
The survivor count was 1 of 4.

What about the survivor count [4] of the same molecule?
The survivor count was 0 of 4.

What about the survivor count [5] of the same molecule?
Its survivor count is 0 of 4.

With `C1=CCC2OC2C1` (configuration not stated) as the molecule, how does the survivor count [2] read?
Its survivor count is 0 of 6.

Which T/C (dose: 2.8 mg/kg/injection, schedule: Q01DX001 (ip), vehicle: other) does the source give for `Cc1cc(C)c(NC(=O)N(CCCl)N=O)c(C)c1` here?
Its T/C is 129 % of control.

And the T/C (dose: 5.62 mg/kg/injection, schedule: Q01DX001 (ip), vehicle: other)?
Its T/C is 137 % of control.

And the survivor count (dose: 125.0 mg/kg/injection, schedule: Q01DX001 (ip), vehicle: other)?
Its survivor count is 6 of 6.

What about the survivor count (dose: 128.0 mg/kg/injection, schedule: Q01DX001 (ip), vehicle: other) of the same molecule?
The survivor count was 8 of 10.

What about the survivor count (dose: 250.0 mg/kg/injection, schedule: Q01DX001 (ip), vehicle: other) of the same molecule?
The survivor count was 2 of 6.

What about the survivor count (dose: 500.0 mg/kg/injection, schedule: Q01DX001 (ip), vehicle: other) of the same molecule?
The survivor count was 0 of 6.

With `O=C1NC(=S)S/C1=C\c1ccc([N+](=O)[O-])cc1` as the molecule, how does the survivor count [8] read?
The survivor count was 2 of 4.

What about the survivor count [10] of the same molecule?
The survivor count was 0 of 6.

With `CCCCCCCNCCC#N` as the molecule, how does the survivor count (dose: 400.0 mg/kg/injection, schedule: Q01DX001 (ip), vehicle: saline with Tween-80) read?
The survivor count was 0 of 6.

Which survivor count (dose: 200.0 mg/kg/injection, schedule: Q04DX002 (ip), vehicle: saline with Tween-80) does the source give for `CCCCCCCC/C=C\CCCCCCCCNP(=O)(OC)OC` here?
The survivor count was 0 of 3.

And the survivor count (dose: 400.0 mg/kg/injection, schedule: Q04DX002 (ip), vehicle: saline with Tween-80)?
Its survivor count is 0 of 3.

How did the survivor count [12] turn out when `NC(=S)N/N=C/c1ccc2c(c1)OCO2` was run?
The survivor count was 2 of 6.

How did the survivor count (dose: 100.0 mg/kg/injection, schedule: Q01DX009 (ip), vehicle: saline) turn out when `COc1cc(N2CCOCC2)ccc1N` was run?
Its survivor count is 5 of 6.

For `O=NN(CCCl)C(=O)Nc1ccc(C(F)(F)F)cc1`, which T/C (dose: 4.6 mg/kg/injection, schedule: Q01DX001 (ip), vehicle: carboxymethylcellulose (CMC)) is on record?
The T/C was 135 % of control.

What about the T/C (dose: 9.37 mg/kg/injection, schedule: Q01DX001 (ip), vehicle: carboxymethylcellulose (CMC)) of the same molecule?
Its T/C is 141 % of control.

What about the T/C (dose: 12.5 mg/kg/injection, schedule: Q01DX001 (ip), vehicle: carboxymethylcellulose (CMC)) of the same molecule?
Its T/C is 140 % of control.

What about the T/C (dose: 18.75 mg/kg/injection, schedule: Q01DX001 (ip), vehicle: carboxymethylcellulose (CMC)) of the same molecule?
Its T/C is 143 % of control.

And the T/C (dose: 25.0 mg/kg/injection, schedule: Q01DX001 (ip), vehicle: carboxymethylcellulose (CMC))?
Its T/C is 141 % of control.

And the T/C (dose: 37.5 mg/kg/injection, schedule: Q01DX001 (ip), vehicle: carboxymethylcellulose (CMC))?
Its T/C is 149 % of control.

And the survivor count [1]?
The survivor count was 6 of 6.

What about the T/C (dose: 100.0 mg/kg/injection, schedule: Q01DX001 (ip), vehicle: carboxymethylcellulose (CMC)) of the same molecule?
The T/C was 143 % of control.

What about the survivor count (dose: 150.0 mg/kg/injection, schedule: Q01DX001 (ip), vehicle: carboxymethylcellulose (CMC)) of the same molecule?
Its survivor count is 6 of 6.

What about the survivor count (dose: 150.0 mg/kg/injection, schedule: Q01DX Z (ip), vehicle: carboxymethylcellulose (CMC)) of the same molecule?
Its survivor count is 0 of 6.

What about the survivor count (dose: 200.0 mg/kg/injection, schedule: Q01DX001 (ip), vehicle: carboxymethylcellulose (CMC)) of the same molecule?
Its survivor count is 2 of 6.

And the survivor count [6]?
The survivor count was 0 of 6.

And the survivor count (dose: 400.0 mg/kg/injection, schedule: Q01DX001 (ip), vehicle: carboxymethylcellulose (CMC))?
Its survivor count is 0 of 6.

What about the survivor count (dose: 500.0 mg/kg/injection, schedule: Q01DX001 (ip), vehicle: carboxymethylcellulose (CMC)) of the same molecule?
The survivor count was 0 of 6.

How did the survivor count [8] turn out when `CC1=CC(=O)OC2(C1)CC1CCC2CN1C` (configuration not stated) was run?
Its survivor count is 0 of 4.

What does the source list for `CCCCCCCCCCCC(=O)NC(=S)Nc1cc([N+](=O)[O-])ccc1C`?
survivor count [7]: 6 of 6; survivor count [9]: 6 of 6; survivor count [11]: 6 of 6

For `Cc1ccnc(NS(=O)(=O)c2ccc(N=[N+]=[N-])cc2)n1`, which survivor count (dose: 200.0 mg/kg/injection, schedule: Q01DX009 (ip), vehicle: carboxymethylcellulose (CMC)) is on record?
The survivor count was 3 of 3.
